Reference: the supplement of paper PMC10849652
The list shows a part of the results.

By UniProt entry, the sequences of proteins in these tests, tags left out. Where a name states a change or a piece, a line headed by the entry shows the natural chain unless it says otherwise.
UniProt P12829: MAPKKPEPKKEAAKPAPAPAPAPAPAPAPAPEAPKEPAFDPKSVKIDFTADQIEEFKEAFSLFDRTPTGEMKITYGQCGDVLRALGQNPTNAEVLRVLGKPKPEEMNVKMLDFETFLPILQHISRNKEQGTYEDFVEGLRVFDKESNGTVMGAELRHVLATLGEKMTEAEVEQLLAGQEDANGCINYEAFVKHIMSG
UniProt Q9BQ15: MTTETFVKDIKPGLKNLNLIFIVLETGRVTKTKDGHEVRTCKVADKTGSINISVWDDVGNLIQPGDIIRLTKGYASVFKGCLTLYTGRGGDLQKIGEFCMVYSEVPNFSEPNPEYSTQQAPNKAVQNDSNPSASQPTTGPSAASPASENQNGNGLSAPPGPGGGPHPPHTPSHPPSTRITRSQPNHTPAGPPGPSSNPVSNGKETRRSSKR
UniProt Q4G0N4: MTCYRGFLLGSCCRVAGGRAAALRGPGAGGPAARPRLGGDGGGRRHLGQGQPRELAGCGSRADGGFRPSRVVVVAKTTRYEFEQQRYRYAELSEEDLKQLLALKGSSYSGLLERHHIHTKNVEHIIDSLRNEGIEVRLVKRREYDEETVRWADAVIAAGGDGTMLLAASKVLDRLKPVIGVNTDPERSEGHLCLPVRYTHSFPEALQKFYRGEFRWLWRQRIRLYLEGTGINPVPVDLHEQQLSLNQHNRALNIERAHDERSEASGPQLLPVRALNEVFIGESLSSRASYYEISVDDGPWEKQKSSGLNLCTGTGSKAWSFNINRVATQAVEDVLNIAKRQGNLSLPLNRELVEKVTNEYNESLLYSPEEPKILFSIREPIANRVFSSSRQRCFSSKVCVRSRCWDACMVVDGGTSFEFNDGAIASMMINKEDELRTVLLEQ
UniProt Q92542, whole entry, looked up: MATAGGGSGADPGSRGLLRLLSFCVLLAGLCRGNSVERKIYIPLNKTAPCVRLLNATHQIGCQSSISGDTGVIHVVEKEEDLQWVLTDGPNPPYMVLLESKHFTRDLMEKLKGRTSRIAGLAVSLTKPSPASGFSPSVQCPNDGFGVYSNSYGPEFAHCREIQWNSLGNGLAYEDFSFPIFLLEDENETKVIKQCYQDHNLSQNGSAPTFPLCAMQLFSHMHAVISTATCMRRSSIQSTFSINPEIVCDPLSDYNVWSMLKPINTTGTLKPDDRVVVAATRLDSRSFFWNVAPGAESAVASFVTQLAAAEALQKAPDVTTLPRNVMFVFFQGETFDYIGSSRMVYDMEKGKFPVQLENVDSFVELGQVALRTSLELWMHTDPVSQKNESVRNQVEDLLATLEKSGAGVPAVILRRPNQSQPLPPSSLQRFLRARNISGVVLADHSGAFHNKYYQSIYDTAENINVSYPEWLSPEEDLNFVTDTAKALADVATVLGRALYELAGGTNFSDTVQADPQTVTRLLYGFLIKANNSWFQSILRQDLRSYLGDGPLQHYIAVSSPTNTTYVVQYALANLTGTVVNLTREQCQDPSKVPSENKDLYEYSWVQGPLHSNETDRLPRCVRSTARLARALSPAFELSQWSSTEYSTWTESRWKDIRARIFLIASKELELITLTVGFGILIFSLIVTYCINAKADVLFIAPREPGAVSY
UniProt Q14686, whole entry, looked up: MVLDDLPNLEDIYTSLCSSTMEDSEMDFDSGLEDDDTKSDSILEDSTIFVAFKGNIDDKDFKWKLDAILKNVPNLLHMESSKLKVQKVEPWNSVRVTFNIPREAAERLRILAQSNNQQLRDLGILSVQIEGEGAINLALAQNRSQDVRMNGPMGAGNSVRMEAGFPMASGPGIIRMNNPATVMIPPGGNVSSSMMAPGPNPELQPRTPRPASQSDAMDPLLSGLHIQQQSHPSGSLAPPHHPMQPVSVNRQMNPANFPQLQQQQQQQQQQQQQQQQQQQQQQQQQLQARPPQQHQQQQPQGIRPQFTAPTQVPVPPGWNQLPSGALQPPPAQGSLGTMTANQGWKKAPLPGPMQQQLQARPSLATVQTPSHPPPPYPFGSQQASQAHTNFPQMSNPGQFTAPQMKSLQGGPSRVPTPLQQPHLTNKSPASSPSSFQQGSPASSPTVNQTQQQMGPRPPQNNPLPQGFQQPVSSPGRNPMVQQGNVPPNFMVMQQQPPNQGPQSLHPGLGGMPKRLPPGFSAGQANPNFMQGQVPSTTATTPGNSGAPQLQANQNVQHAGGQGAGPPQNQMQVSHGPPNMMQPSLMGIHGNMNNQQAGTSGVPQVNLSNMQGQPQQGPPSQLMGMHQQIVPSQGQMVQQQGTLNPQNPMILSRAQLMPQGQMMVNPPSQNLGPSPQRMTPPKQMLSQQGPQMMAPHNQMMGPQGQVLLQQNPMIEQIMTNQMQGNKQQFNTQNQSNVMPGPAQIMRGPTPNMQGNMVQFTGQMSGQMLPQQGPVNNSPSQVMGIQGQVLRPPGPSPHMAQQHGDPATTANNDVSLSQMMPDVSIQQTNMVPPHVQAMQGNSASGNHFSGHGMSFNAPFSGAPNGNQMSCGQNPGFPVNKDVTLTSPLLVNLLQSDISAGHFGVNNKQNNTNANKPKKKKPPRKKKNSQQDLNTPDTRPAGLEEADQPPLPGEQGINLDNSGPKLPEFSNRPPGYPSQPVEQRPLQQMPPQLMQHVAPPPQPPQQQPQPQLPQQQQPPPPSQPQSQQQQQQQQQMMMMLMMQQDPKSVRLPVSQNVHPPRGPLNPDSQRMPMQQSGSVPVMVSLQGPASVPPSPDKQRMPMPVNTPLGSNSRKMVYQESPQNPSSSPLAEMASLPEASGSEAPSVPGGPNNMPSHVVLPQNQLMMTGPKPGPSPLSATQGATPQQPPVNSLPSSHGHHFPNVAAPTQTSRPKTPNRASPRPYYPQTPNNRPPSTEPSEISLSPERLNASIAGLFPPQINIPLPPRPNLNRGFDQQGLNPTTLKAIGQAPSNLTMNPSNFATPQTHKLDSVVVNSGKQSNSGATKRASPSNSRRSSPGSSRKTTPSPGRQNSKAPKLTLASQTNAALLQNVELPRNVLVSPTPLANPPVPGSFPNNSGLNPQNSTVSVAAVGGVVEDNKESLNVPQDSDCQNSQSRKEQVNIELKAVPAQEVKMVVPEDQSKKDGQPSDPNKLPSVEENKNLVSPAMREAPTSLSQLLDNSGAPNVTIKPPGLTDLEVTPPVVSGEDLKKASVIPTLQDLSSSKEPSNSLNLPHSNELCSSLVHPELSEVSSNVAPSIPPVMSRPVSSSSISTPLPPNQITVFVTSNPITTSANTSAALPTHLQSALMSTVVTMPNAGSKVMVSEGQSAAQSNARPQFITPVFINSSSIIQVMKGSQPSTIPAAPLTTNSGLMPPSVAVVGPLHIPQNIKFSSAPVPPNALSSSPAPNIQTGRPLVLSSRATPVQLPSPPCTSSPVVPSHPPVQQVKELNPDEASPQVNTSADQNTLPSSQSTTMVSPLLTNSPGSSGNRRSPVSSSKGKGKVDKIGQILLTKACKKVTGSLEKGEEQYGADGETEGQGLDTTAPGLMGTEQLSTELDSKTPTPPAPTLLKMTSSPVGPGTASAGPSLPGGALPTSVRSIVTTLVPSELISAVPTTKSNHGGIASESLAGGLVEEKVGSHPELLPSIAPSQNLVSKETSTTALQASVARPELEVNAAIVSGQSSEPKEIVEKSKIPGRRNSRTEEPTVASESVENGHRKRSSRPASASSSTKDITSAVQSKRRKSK
UniProt Q8NFP9, whole entry, looked up: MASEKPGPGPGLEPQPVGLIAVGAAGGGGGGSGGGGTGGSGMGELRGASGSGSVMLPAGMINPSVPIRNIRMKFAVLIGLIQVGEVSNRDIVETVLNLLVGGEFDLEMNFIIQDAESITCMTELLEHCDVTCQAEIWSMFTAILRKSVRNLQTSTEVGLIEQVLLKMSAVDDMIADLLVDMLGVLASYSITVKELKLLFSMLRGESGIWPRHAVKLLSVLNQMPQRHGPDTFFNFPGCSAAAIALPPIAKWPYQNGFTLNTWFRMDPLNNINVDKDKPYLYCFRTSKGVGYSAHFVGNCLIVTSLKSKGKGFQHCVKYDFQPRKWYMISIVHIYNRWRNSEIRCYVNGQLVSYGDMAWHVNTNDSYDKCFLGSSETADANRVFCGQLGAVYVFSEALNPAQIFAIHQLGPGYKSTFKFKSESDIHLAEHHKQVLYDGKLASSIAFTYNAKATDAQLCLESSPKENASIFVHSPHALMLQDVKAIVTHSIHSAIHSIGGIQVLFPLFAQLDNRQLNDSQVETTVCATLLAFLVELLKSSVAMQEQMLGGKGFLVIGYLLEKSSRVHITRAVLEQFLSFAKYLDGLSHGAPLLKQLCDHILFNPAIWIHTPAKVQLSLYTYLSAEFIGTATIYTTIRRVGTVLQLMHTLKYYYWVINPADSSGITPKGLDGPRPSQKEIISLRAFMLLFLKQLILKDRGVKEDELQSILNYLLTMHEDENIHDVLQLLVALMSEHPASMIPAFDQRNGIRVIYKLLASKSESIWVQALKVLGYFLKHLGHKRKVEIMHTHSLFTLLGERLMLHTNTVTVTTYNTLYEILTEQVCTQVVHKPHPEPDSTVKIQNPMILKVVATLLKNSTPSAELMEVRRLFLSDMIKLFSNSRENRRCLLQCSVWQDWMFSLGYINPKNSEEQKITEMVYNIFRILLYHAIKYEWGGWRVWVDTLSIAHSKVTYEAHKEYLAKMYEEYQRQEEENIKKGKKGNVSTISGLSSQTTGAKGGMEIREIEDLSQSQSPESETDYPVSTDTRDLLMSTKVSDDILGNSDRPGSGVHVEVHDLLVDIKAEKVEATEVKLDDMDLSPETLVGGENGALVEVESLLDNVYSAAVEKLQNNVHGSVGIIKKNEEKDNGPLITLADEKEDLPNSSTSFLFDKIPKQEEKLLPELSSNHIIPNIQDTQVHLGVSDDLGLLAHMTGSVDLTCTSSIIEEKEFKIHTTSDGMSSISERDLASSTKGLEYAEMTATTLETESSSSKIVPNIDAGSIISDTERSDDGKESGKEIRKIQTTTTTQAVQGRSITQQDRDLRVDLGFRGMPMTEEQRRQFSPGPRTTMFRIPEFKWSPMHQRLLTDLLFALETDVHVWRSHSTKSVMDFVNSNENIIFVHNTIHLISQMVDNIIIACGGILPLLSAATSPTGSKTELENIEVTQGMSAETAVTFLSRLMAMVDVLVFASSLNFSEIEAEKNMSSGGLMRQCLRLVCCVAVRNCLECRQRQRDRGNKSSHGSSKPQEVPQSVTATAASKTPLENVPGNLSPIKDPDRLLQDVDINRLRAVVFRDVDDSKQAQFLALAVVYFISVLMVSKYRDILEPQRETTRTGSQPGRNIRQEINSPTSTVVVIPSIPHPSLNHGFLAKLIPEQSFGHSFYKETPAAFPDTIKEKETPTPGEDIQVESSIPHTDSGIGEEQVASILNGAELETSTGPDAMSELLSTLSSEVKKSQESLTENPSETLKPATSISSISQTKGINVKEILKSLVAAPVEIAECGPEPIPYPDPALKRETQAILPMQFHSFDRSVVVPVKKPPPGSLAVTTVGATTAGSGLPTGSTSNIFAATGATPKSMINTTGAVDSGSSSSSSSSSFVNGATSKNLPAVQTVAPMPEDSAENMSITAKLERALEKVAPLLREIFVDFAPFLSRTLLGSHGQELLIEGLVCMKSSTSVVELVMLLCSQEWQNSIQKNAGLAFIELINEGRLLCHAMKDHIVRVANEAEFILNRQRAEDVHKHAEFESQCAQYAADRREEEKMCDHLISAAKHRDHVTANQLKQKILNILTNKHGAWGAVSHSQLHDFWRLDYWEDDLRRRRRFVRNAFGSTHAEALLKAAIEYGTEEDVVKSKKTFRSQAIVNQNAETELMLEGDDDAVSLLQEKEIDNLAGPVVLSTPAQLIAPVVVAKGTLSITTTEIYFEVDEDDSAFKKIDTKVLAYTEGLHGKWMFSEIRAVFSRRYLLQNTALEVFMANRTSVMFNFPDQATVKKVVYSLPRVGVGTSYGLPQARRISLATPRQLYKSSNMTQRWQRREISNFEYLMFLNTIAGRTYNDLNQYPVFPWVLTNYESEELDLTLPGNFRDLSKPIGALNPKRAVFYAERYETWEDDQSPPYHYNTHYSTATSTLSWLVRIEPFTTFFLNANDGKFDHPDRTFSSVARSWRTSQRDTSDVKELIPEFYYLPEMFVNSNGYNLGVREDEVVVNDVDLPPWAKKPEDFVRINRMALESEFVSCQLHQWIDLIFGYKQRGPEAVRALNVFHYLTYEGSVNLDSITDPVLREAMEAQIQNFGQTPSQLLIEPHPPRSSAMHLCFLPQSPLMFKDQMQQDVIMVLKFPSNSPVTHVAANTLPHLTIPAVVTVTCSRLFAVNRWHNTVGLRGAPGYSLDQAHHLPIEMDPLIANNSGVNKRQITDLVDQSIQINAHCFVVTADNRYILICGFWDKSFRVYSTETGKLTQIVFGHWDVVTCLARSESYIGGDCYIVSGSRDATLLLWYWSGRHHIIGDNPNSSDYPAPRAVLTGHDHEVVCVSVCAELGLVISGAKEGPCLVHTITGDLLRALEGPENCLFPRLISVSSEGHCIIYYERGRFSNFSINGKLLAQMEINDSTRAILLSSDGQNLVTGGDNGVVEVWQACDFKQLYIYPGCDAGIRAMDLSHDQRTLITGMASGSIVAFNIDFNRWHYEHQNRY

Tests used:
Assay in all cases: log2 fold change, soluble protein after heating vs DMSO (PISA); higher = thermal stabilisation; K562 lysate, 10 uM; active = over 0.2 and 3.5 SD of the protein, either way, in both replicates (recomputed)
vemurafenib = compound: CCCS(=O)(=O)Nc1ccc(F)c(C(=O)c2c[nH]c3ncc(-c4ccc(Cl)cc4)cc23)c1F [vemurafenib]
How it was run: (§1)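 Quantification was by TMTpro 16plex LC-MS/MS with equalised channel sums, applied to the supernatant after 21,000xg for 90 min. Samples were crude K562 extract at 1 mg/mL protein in PBS pH 7.4 with 1 mM MgCl2, treated with 10 μM compound for 30 min, heated for 3 min across 48°C-58°C, pooled and brought to 0.5% NP-40 at 4°C. Values are log-two fold changes in thermal stability relative to solvent controls, from duplicates.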

[1] = compound: CCCS(=O)(=O)Nc1ccc(F)c(C(=O)c2c[nH]c3ncc(Cl)cc23)c1F
How it was run: as §1

barasertib = compound: CCN(CCCOc1ccc2c(Nc3cc(CC(=O)Nc4cccc(F)c4)[nH]n3)ncnc2c1)CCOP(=O)(O)O [barasertib]
How it was run: as §1

[2] = compound: CC[C@@H]1C(=O)N(C)c2cnc(Nc3ccc(C(=O)NC4CCN(C)CC4)cc3OC)nc2N1C1CCCC1
How it was run: as §1

volasertib = compound: CC[C@@H]1C(=O)N(C)c2cnc(Nc3ccc(C(=O)N[C@H]4CC[C@H](N5CCN(CC6CC6)CC5)CC4)cc3OC)nc2N1C(C)C [volasertib]
How it was run: as §1

[3] = compound: CCn1c(C(=O)N(C2CC2)C2CC2)cc2c3c(ncn3C)c(Nc3cc(C)n(C)n3)nc21
How it was run: as §1

[4] = compound: CCn1cc(-c2ccnc3[nH]c(-c4cccc(CN(C)C)c4)cc23)c(-c2ccc(NC(=O)N(C)C)cc2)n1
How it was run: as §1

[5] = compound: CN1CCC(CNc2ccc3ncc(-c4cccc(OC(F)(F)F)c4)n3n2)CC1
How it was run: as §1

saracatinib = compound: CN1CCN(CCOc2cc(OC3CCOCC3)c3c(Nc4c(Cl)ccc5c4OCO5)ncnc3c2)CC1 [saracatinib]
How it was run: as §1

sotrastaurin = compound: CN1CCN(c2nc(C3=C(c4c[nH]c5ccccc45)C(=O)NC3=O)c3ccccc3n2)CC1 [sotrastaurin]
How it was run: as §1

alvocidib = compound: CN1CC[C@H](c2c(O)cc(O)c3c(=O)cc(-c4ccccc4Cl)oc23)[C@H](O)C1 [alvocidib]
How it was run: as §1

Tubastatin A = compound: CN1CCc2c(c3ccccc3n2Cc2ccc(C(=O)NO)cc2)C1 [Tubastatin A]
How it was run: as §1

[6] = compound: CNC(=O)C1=CC=CC=C1NC2=NC(=NC=C2Cl)NC3=C(C=C(C=C3)N4CCOCC4)OC
How it was run: as §1

defactinib = compound: CNC(=O)c1ccc(Nc2ncc(C(F)(F)F)c(NCc3nccnc3N(C)S(C)(=O)=O)n2)cc1 [defactinib]
How it was run: as §1

[7] = compound: CNc1nc(-c2ccc3c(N)n[nH]c3c2)cc(N2C[C@@H](C(=O)NC3CCCCC3)CC[C@H]2C)n1
How it was run: as §1

encorafenib = compound: COC(=O)N[C@@H](C)CNc1nccc(-c2cn(C(C)C)nc2-c2cc(Cl)cc(NS(C)(=O)=O)c2F)n1 [encorafenib]
How it was run: as §1

[8] = compound: COC(=O)[C@H](CCSC)NC(=O)C1=C(C=C(C=C1)NC[C@H](CS)N)C2=CC=CC=C2
How it was run: as §1

alisertib = compound: COc1cc(Nc2ncc3c(n2)-c2ccc(Cl)cc2C(c2c(F)cccc2OC)=NC3)ccc1C(=O)O [alisertib]
How it was run: as §1

[9] = compound: COc1cc2nc(-c3cc(F)ccc3O)nc(N[C@@H]3CNC[C@H]3C(C)(C)O)c2cc1OC
How it was run: as §1

gefitinib = compound: COc1cc2ncnc(Nc3ccc(F)c(Cl)c3)c2cc1OCCCN1CCOCC1 [gefitinib]
How it was run: as §1

| Target | log2 fold change (vemurafenib) | log2 fold change [1] | log2 fold change (barasertib) | log2 fold change [2] | log2 fold change (volasertib) | log2 fold change [3] | log2 fold change [4] | log2 fold change [5] | log2 fold change (saracatinib) | log2 fold change (sotrastaurin) | log2 fold change (alvocidib) | log2 fold change (Tubastatin A) | log2 fold change [6] | log2 fold change (defactinib) | log2 fold change [7] | log2 fold change (encorafenib) | log2 fold change [8] | log2 fold change (alisertib) | log2 fold change [9] | log2 fold change (gefitinib) |
| --- | --- | --- | --- | --- | --- | --- | --- | --- | --- | --- | --- | --- | --- | --- | --- | --- | --- | --- | --- | --- |
| MYL4 (UniProt P12829) | inactive: -0.001 | inactive: 0.011 | inactive: 0.206 | inactive: 0.018 | inactive: 0.049 | inactive: -0.04 | inactive: -0.081 | inactive: -0.013 | inactive: -0.011 | inactive: -0.019 | inactive: 0.019 | inactive: 0.054 | inactive: 0.019 | inactive: 0.058 | inactive: 0.024 | inactive: 0.001 | inactive: -0.096 | inactive: 0.015 | inactive: 0.021 | inactive: -0.08 |
| NCOR2 (UniProt C9J0Q5) | inactive: 0.006 | inactive: 0.021 | inactive: 0.024 | inactive: 0.009 | inactive: 0.009 | inactive: 0.056 | inactive: 0.019 | inactive: 0.036 | inactive: -0.026 | inactive: 0.032 | inactive: 0.024 | inactive: -0.035 | inactive: -0.013 | inactive: 0.045 | inactive: -0.001 | inactive: -0.002 | inactive: 0.006 | inactive: 0.036 | inactive: 0.017 | inactive: 0.049 |
| NABP2 (UniProt Q9BQ15) | inactive: 0.026 | inactive: 0.064 | inactive: -0.058 | inactive: -0.009 | inactive: 0.001 | inactive: -0.042 | inactive: 0.122 | inactive: -0.036 | inactive: -0.041 | inactive: -0.008 | inactive: 0.003 | inactive: 0.004 | inactive: 0.036 | inactive: -0.065 | inactive: -0.11 | inactive: -0.022 | inactive: -0.093 | inactive: 0.02 | inactive: 0.004 | inactive: -0.017 |
| NCOR1 (UniProt O75376) | inactive: -0.005 | inactive: -0.01 | inactive: 0.018 | inactive: 0.043 | inactive: 0.002 | inactive: -0.014 | inactive: -0.002 | inactive: -0.033 | inactive: 0.006 | inactive: 0.006 | inactive: -0.028 | inactive: -0.027 | inactive: 0.018 | inactive: 0.06 | inactive: 0.021 | inactive: 0.015 | inactive: -0.007 | inactive: 0.01 | inactive: 0.018 | inactive: -0.019 |
| NARS1 (UniProt O43776) | inactive: -0.004 | inactive: -0.005 | inactive: -0.027 | inactive: -0.016 | inactive: -0.036 | inactive: 0.011 | inactive: 0.02 | inactive: 0.018 | inactive: 0.012 | inactive: 0.003 | inactive: 0.024 | inactive: -0.028 | inactive: 0.001 | inactive: -0.021 | inactive: -0.03 | inactive: 0.005 | inactive: 0.047 | inactive: 0.015 | inactive: 0.057 | inactive: -0.005 |
| NADK2 (UniProt Q4G0N4) | inactive: 0.024 | inactive: -0.013 | inactive: 0.034 | inactive: 0.078 | inactive: 0.008 | inactive: -0.016 | inactive: -0.019 | inactive: 0.02 | inactive: -0.035 | inactive: -0.036 | inactive: -0.025 | inactive: 0.106 | inactive: -0.036 | inactive: 0 | inactive: 0.04 | inactive: -0.052 | active: 0.3 | inactive: -0.022 | inactive: -0.004 | inactive: -0.009 |
| NCAPG2 (UniProt Q86XI2) | inactive: 0.015 | inactive: 0.044 | inactive: 0.016 | inactive: -0.055 | inactive: -0.006 | inactive: 0.025 | inactive: -0.139 | inactive: 0.074 | inactive: 0.027 | inactive: 0.027 | inactive: -0.014 | inactive: -0.217 | inactive: -0.008 | inactive: 0.023 | inactive: 0.04 | inactive: 0.002 | inactive: -0.018 | inactive: 0.004 | inactive: -0.01 | inactive: 0.038 |
| NCOA2 (UniProt Q15596) | inactive: 0.072 | inactive: 0.137 | inactive: 0.035 | inactive: -0.01 | inactive: -0.059 | inactive: 0.034 | inactive: 0.001 | inactive: 0.03 | inactive: 0.036 | inactive: 0.015 | inactive: 0.009 | inactive: 0.038 | inactive: 0.02 | inactive: -0.002 | inactive: 0.094 | inactive: 0.072 | inactive: 0.013 | inactive: -0.09 | inactive: 0.146 | inactive: -0.104 |
| NCALD (UniProt P61601) | inactive: 0.014 | inactive: -0.001 | inactive: 0.016 | inactive: 0.008 | inactive: 0.044 | inactive: -0.014 | inactive: -0.05 | inactive: 0.039 | inactive: 0.002 | inactive: 0.035 | inactive: -0.034 | inactive: 0.047 | inactive: 0.004 | inactive: 0.036 | inactive: -0.131 | inactive: 0.011 | inactive: -0.063 | inactive: -0.011 | inactive: 0.024 | inactive: -0.002 |
| NASP (UniProt P49321) | inactive: -0.004 | inactive: -0.015 | inactive: -0.019 | inactive: 0.015 | inactive: 0.027 | inactive: -0.01 | inactive: -0.019 | inactive: -0.02 | inactive: -0.001 | inactive: -0.014 | inactive: 0.031 | inactive: 0.035 | inactive: -0.029 | inactive: -0.03 | inactive: -0.009 | inactive: -0.005 | inactive: -0.034 | inactive: 0 | inactive: 0.012 | inactive: 0.009 |
| NCSTN (UniProt Q92542) | inactive: 0.025 | inactive: -0.009 | inactive: 0.026 | inactive: 0.022 | inactive: -0.012 | inactive: 0 | inactive: -0.229 | inactive: 0.145 | inactive: 0.027 | inactive: 0.006 | inactive: -0.115 | inactive: 0.059 | inactive: 0.009 | inactive: -0.009 | inactive: 0.098 | inactive: 0.05 | inactive: -0.043 | inactive: 0.011 | inactive: -0.02 | inactive: -0.018 |
| NCKAP1L (UniProt P55160) | inactive: -0.14 | inactive: 0.032 | inactive: 0.131 | inactive: -0.068 | inactive: 0.004 | inactive: -0.049 | inactive: -0.025 | inactive: -0.082 | inactive: -0.083 | inactive: 0.032 | inactive: -0.033 | inactive: -0.043 | inactive: 0.198 | inactive: 0.009 | inactive: 0.063 | inactive: 0.058 | inactive: -0.223 | inactive: 0.022 | inactive: -0.025 | inactive: -0.059 |
| NCOA6 (UniProt Q14686) | inactive: -0.012 | inactive: 0.02 | inactive: 0.037 | inactive: 0.082 | inactive: 0.008 | inactive: -0.009 | inactive: -0.03 | inactive: 0.02 | inactive: -0.042 | inactive: -0.025 | inactive: -0.016 | inactive: -0.02 | inactive: 0.047 | inactive: 0.068 | inactive: 0.045 | inactive: 0.04 | inactive: 0.011 | inactive: -0.032 | inactive: -0.022 | inactive: 0.018 |
| NBEA (UniProt Q8NFP9) | inactive: 0.017 | inactive: 0.022 | inactive: -0.006 | inactive: -0.048 | inactive: -0.052 | inactive: -0.014 | inactive: -0.08 | inactive: 0.1 | inactive: 0.08 | inactive: 0.014 | inactive: -0.114 | inactive: -0.046 | inactive: 0.006 | inactive: 0.018 | inactive: -0.042 | inactive: 0.05 | inactive: 0 | inactive: 0.009 | inactive: -0.026 | inactive: -0.028 |
| NCAPG (UniProt Q9BPX3) | inactive: -0.013 | inactive: 0.021 | inactive: 0.018 | inactive: -0.057 | inactive: -0.023 | inactive: 0.015 | inactive: -0.05 | inactive: -0.024 | inactive: 0.001 | inactive: -0.011 | inactive: 0.003 | inactive: -0.113 | inactive: 0.011 | inactive: 0.024 | inactive: 0.01 | inactive: -0.01 | inactive: 0.094 | inactive: 0.007 | inactive: -0.01 | inactive: 0.003 |
| MUCL1 (UniProt Q96DR8) | inactive: -0.202 | inactive: -0.242 | inactive: -0.057 | inactive: -0.214 | inactive: -0.174 | inactive: -0.169 | inactive: 0.146 | inactive: -0.052 | inactive: -0.003 | inactive: -0.275 | inactive: 0.231 | inactive: 0.25 | inactive: -0.273 | inactive: 0.36 | inactive: -0.682 | inactive: -0.43 | inactive: 0.555 | inactive: -0.02 | inactive: -0.121 | inactive: 0.266 |

2 records drawn at random from the list so far, as already listed:

| Target | log2 fold change (vemurafenib) | log2 fold change [1] | log2 fold change (barasertib) | log2 fold change [2] | log2 fold change (volasertib) | log2 fold change [3] | log2 fold change [4] | log2 fold change [5] | log2 fold change (saracatinib) | log2 fold change (sotrastaurin) | log2 fold change (alvocidib) | log2 fold change (Tubastatin A) | log2 fold change [6] | log2 fold change (defactinib) | log2 fold change [7] | log2 fold change (encorafenib) | log2 fold change [8] | log2 fold change (alisertib) | log2 fold change [9] | log2 fold change (gefitinib) |
| --- | --- | --- | --- | --- | --- | --- | --- | --- | --- | --- | --- | --- | --- | --- | --- | --- | --- | --- | --- | --- |
| NABP2 (UniProt Q9BQ15) | inactive: 0.026 | inactive: 0.064 | inactive: -0.058 | inactive: -0.009 | inactive: 0.001 | inactive: -0.042 | inactive: 0.122 | inactive: -0.036 | inactive: -0.041 | inactive: -0.008 | inactive: 0.003 | inactive: 0.004 | inactive: 0.036 | inactive: -0.065 | inactive: -0.11 | inactive: -0.022 | inactive: -0.093 | inactive: 0.02 | inactive: 0.004 | inactive: -0.017 |
| NCOA6 (UniProt Q14686) | inactive: -0.012 | inactive: 0.02 | inactive: 0.037 | inactive: 0.082 | inactive: 0.008 | inactive: -0.009 | inactive: -0.03 | inactive: 0.02 | inactive: -0.042 | inactive: -0.025 | inactive: -0.016 | inactive: -0.02 | inactive: 0.047 | inactive: 0.068 | inactive: 0.045 | inactive: 0.04 | inactive: 0.011 | inactive: -0.032 | inactive: -0.022 | inactive: 0.018 |
